Experimental data from PMC2447832.
No constants are given. Whether binding was seen depends on the method and setting. Binding seen in cells or lysates may run through a third protein. Some binding calls cover weakened binding; strength is not graded here. Sequences can lack the tags named with a protein.

B1: FLAG-tagged ISL1α (protein, UniProt P61372-1 1-349)
chain: MGDMGDPPKKKRLISLCVGCGNQIHDQYILRVSPDLEWHAACLKCAECNQYLDESCTCFVRDGKTYCKRDYIRLYGIKCAKCSIGFSKNDFVMRARSKVYHIECFRCVACSRQLIPGDEFALREDGLFCRADHDVVERASLGAGDPLSPLHPARPLQMAAEPISARQPALRPHVHKQPEKTTRVRTVLNEKQLHTLRTCYAANPRPDALMKEQLVEMTGLSPRVIRVWFQNKRCKDKKRSIMMKQLQQQQPNDKTNIQGMTGTPMVAASPERHDGGLQANPVEVQSYQPPWKVLSDFALQSDIDQPAFQQLVNFSEGGPGSNSTGSEVASMSSQLPDTPNSMVASPIEA
B2: FLAG-tagged ISL1β (protein, UniProt P61372-2 1-326)
chain: MGDMGDPPKKKRLISLCVGCGNQIHDQYILRVSPDLEWHAACLKCAECNQYLDESCTCFVRDGKTYCKRDYIRLYGIKCAKCSIGFSKNDFVMRARSKVYHIECFRCVACSRQLIPGDEFALREDGLFCRADHDVVERASLGAGDPLSPLHPARPLQMAAEPISARQPALRPHVHKQPEKTTRVRTVLNEKQLHTLRTCYAANPRPDALMKEQLVEMTGLSPRVIRVWFQNKRCKDKKRSIMMKQLQQQQPNDKTANPVEVQSYQPPWKVLSDFALQSDIDQPAFQQLVNFSEGGPGSNSTGSEVASMSSQLPDTPNSMVASPIEA
B3: FLAG-tagged CITED2 (protein, UniProt O35740 1-269)
chain: MADHMMAMNHGRFPDGTNGLHHHPAHRMGMGQFPSPHHHQQQQPQHAFNALMGEHIHYGAGNMNATSGIRHAMGPGTVNGGHPPSALAPAARFNNSQFMGPPVASQGGSLPASMQLQKLNNQYFNHHPYPHNHYMPDLHPTAGHQMNGTNQHFRDCNPKHSGGSSTPGGAGGSGTPGGSGGTSGGAGGSSAGGSGGGSTMPASVAHVPAAMLPPNVIDTDFIDEEVLMSLVIEMGLDRIKELPELWLGQNEFDFMTDFVCKQQPSRVSC

Experiments:
HA-tagged LHX9α (mouse) = biological target: T1, HA-tagged LHX9α (mouse) (UniProt Q9WUH2); test: co-IP; HEK293 cells co-transfected with pCS2+HA-Lhx9 and a FLAG-tagged partner; cleared lysates in TNN-plus buffer (Tris HCl pH 7.5, 150 mM NaCl, 0.5% Igepal, 5 mM EDTA, protease inhibitor) on Anti-HA Affinity Matrix for 2 h in a cold room, 4 washes; Western blot with anti-FLAG M2 peroxidase conjugate
T1 sequence: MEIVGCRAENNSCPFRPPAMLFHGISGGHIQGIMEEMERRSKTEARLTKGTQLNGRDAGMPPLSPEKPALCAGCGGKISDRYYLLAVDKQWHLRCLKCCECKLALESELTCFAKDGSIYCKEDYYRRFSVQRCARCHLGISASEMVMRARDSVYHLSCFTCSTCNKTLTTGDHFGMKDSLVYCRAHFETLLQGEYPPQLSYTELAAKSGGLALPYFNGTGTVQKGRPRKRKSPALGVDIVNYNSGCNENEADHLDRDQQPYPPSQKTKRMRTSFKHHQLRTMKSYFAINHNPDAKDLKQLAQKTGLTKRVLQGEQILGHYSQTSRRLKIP

LHX9β (mouse) = biological target: T2, LHX9β (mouse) (UniProt Q9WUH2); test: co-IP; IP-Western analysis (Fig 7) as told for LHX9β in a heading and the discussion; no LHX9β construct or set-up is described
T2 sequence: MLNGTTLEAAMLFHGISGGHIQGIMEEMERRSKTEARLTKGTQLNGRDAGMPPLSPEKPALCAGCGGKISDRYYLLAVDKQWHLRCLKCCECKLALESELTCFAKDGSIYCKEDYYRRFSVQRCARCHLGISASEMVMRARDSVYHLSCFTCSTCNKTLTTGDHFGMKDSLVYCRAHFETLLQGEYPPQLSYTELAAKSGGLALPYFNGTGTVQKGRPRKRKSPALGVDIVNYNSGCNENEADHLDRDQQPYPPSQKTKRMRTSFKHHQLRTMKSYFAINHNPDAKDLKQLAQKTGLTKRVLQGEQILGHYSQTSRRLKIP

Binder | binding (HA-tagged LHX9α (mouse)) | binding (LHX9β (mouse))
B1 | binds | –
B2 | binds | –
B3 | no binding | no binding
